This assay deals with IbWRKY2 fused to the N-terminal region of YFP (pSPYNE-IbWRKY2-nYFP) (sweetpotato (Ipomoea batatas)). In words: split reporter; BiFC: nYFP and cYFP fusions (pSPYNE, pSPYCE) in N. benthamiana leaves injected with A. tumefaciens; confocal microscopy 24-48 h after injection.

No constants are given. Whether binding was seen depends on the method and setting. Binding seen in cells or lysates may run through a third protein. Binding can be weak; no strength is given. Sequences can lack the tags named with a protein.

B1: AtVQ4 fused to the C-terminal region of YFP (pSPYCE, AtVQ4-cYFP) (protein, UniProt Q5M750 1-247)
chain: MENSPRYREATNLIPSPRCHNSNNSCGMSSSSESNKPPTTPTRHVTTRSESGNPYPTTFVQADTSSFKQVVQMLTGSAERPKHGSSLKPNPTHHQPDPRSTPSSFSIPPIKAVPNKKQSSSSASGFRLYERRNSMKNLKINPLNPVFNPVNSAFSPRKPEILSPSILDFPSLVLSPVTPLIPDPFDRSGSSNQSPNELAAEEKAMKERGFYLHPSPATTPMDPEPRLLPLFPVTSPRVSGSSSASTS
On to B1, for which the binding entry is reported as “binds”.

Values taken from paper PMC7226164.
